# Assay results published in patent US20070275063A1, “SUSTAINED RELEASE PHARMACEUTICAL COMPOSITIONS AND METHODS OF TREATMENT USING THE SAME” (SmithKline Beecham Corporation, priority 1998, published 2007).
# System: fasting plasma glucose (FPG) concentrations in diabetic patients
# Assay: PK/PD model (modified indirect response model IV) of the effect of Compound (I) on fasting plasma glucose in Type 2 diabetes patients
# Format: in vivo, human
# Conditions: estimated pharmacodynamic parameter
# Text: The method by which the Threshold Plasma Concentration, such as the SC50 concentration, for a given compound can be determined is:
# 2) the model predicted concentrations for the compound are then fed back into the model and used to determine the change in fasting plasma glucose levels after various doses;
# 3) the relationship between predicted plasma concentrations of compound and fasting plasma glucose can suitably be determined using an indirect pharmacological response model (model IV), for example that described in (Dayneka N L, Garg V and Jusko W J, Comparison of Four Basic Models of Indirect Pharmacodynamic Responses. J of Pharmacokinetics and Biopharmaceutics. Vol 21, No 4. 1993). This model yields estimates of glucose input rate (Kin) and output rate (Kout), maximal stimulation of glucose output (Smax). Hill coefficient (gamma) and the Threshold Plasma Concentration, such as the SC50 concentration (i.e the concentration associated with a half maximal response) to be determined for that compound. This method forms a further part of the present invention.
# For Compound (I), it was necessary to account for a time delay between the time of actual initiation of dosing (week 0) and the observed change in fasting plasma glucose. This delay factor was estimated through the modelling for each dose level. […] The delay factor was incorporated into the model for deriving fasting plasma glucose by assuming that the first dose of drug occurred only after the time dictated by the delay factor. It is considered that for this model a delay factor would be required for other thiazolidinedione insulin sensitisers and that this factor will be substantially similar to that found for Compound (I). Delay factors for other compounds may also be required to be determined using similar methodology to that disclosed herein.
# A modified indirect response model IV (Dayneka et al. 1993) was developed utilizing the pharmacokinetics of Compound (I) as the driving force for the change in fasting plasma glucose after various doses of Compound (I). […]
structure (smiles),measurement,setting,value
"CN(CCOc1ccc(CC2SC(=O)NC2=O)cc1)c1ccccn1 (stereo not drawn) [Compound (I), 5-[4-[2-(N-methyl-N-(2-pyridyl)amino)ethoxy]benzyl]thiazolidine-2,4-dione]","γ (sigmoidicity parameter, Hill coefficient)",,3.1
same,kin (formation of plasma glucose),"mean FPG data, 26 weeks",0.54 mg/dL of FPG per h
same,kout (utilization of plasma glucose),"mean FPG data, 26 weeks",0.0023 h⁻¹
